Data: PMC7862700
The list shows a part of the results. The exact form of the protein is not confirmed.

Molecular target: T1, ETS1 (UniProt P14921)
T1 sequence: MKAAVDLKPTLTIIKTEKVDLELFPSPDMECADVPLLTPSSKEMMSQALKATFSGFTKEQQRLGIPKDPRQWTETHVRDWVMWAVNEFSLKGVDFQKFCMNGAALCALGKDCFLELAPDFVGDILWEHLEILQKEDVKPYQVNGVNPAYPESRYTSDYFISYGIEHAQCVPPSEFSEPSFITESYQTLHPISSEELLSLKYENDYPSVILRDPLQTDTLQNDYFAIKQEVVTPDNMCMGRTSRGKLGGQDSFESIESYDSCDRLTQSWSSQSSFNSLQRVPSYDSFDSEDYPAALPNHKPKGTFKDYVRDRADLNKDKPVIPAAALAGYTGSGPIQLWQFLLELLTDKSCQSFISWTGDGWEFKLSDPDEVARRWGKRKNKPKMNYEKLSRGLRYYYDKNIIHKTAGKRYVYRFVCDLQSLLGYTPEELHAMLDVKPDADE
Assay: DAPPL (digital affinity profiling via proximity ligation, sequencing)
Conditions: 10 mM Tris-HCl pH 7.5, 50 mM NaCl, 1 mM DTT, 4% glycerol, room temperature, 30 min; GST-TFs on glutathione beads, 16-mer random dsDNA library, 0.1% …; high values mean tight binding; double strand, one strand shown; scale: fold enrichment (6-mer frequency, TF over GST control)

Row | Sequence | binding signal
1 | TCATGC | 1.17
2 | TGGTTT | 1.54
3 | TCTTGT | 1.49
4 | CGAAAA | 1.15
5 | TTCCTC | 2.07
6 | AATGCT | 1.31
7 | TAGCCC | 1.19
8 | CAAATT | 1.13
9 | CGCTCT | 1.24
10 | ATCCCC | 1.26
11 | TATACT | 1.32
12 | TGGTAC | 1.18
13 | TACGCC | 1.24
14 | GTTAAC | 1.21
15 | GTATGC | 1.16
16 | GCTTGC | 1.31
17 | CTCCCG | 1.5
18 | AAAGCG | 1.13
19 | GCCCCT | 1.34
20 | ACACAC | 1.3

Row | Sequence | binding signal
21 | TTACAC | 1.25
22 | ACCATA | 1.16
23 | GAAAAG | 1.08
24 | TAAGCT | 1.18
25 | TTTCAG | 1.33
26 | AACTAA | 1.38
27 | AAATCC | 1.49
28 | CATCTT | 1.13
29 | GCTTAT | 1.28
30 | TTTCCT | 2.28
31 | CTAATA | 1.13
32 | ATCTAC | 1.34
33 | GCCTCG | 1.37
34 | TTACTG | 1.22
35 | ATCCTG | 1.41
36 | GTTTAA | 1.14
37 | TCCCTC | 1.42
38 | CCGGCA | 1.42
39 | GATGAC | 1.45

Not a retest: an excerpt of the list.
Row | Sequence | binding signal
22 | ACCATA | 1.16
23 | GAAAAG | 1.08
24 | TAAGCT | 1.18
25 | TTTCAG | 1.33
26 | AACTAA | 1.38
27 | AAATCC | 1.49
28 | CATCTT | 1.13
